This is an account of results in the supplement of paper PMC7024190.

Where a name gives a salt, the structure may show the parent alone. This is one part of the list. This data set is noisy: repeats of one test often differ as much as different tests do.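 Human embryonic kidney cells were transiently transfected with a plasmid bearing a Renilla luciferase gene under the HSV-TK promoter. This first-round screen tests roughly ten thousand compounds for ones that increase reporter output.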

This assay relates to HEK 293FT. Briefly: log relative Renilla luciferase luminescence (reporter expression vs reference, reference not stated) (log (base not stated)); higher = higher recombinant reporter expression. The settings on record: 10 µM; time after transfection 48 h.
Regarding `Nc1ccncc1` [fampridine], the log was 0.0818.
For the compound `CN(C)Cc1c[nH]c2ccccc12` [gramine], the log worked out at 0.00491.
Take `COc1cc([C@@H]2c3cc4c(cc3[C@H](OC(C)=O)[C@H]3COC(=O)[C@H]23)OCO4)cc(OC)c1OC` [podophyllin acetate]: the log was -0.0429.
For `O=C(O[C@H]1C[C@H]2CC[C@@H](C1)[N+]21CCCC1)C(O)(c1ccccc1)c1ccccc1` [trospium chloride], the log worked out at 0.198.
As to `COc1ccc(C(=O)N2CCCC2=O)cc1` [aniracetam], the log is 0.0633.
Consider `O=C(O)CCCc1ccc(N(CCCl)CCCl)cc1` [chlorambucil], for which the log was -0.232.
As to `CC[C@@]1(O)C[C@H](O)c2c(cc3c(c2O)C(=O)c2c(O)ccc(O)c2C3=O)[C@H]1C(=O)OC` [rutilantinone], the log was -0.0376.
Regarding `COC(=O)[C@@H]1C[C@H](OC(C)=O)C(=O)[C@H]2[C@@]1(C)CC[C@H]1C(=O)O[C@H](c3ccoc3)C[C@]21C` [salvinorin a], the log turned out to be 0.00551.
In the case of `O=C1C=C2C=C[C@@H]3C[C@@]2(O1)[C@H]1CCCCN31` [securinine], the log was -1.05.
On to `Oc1noc2c1CCNC2` [gaboxadol hydrochloride], for which the log was found to be 0.101.
As to `COc1cc([C@@H]2c3cc4c(cc3[C@H](O)[C@H]3COC(=O)[C@@H]23)OCO4)cc(OC)c1OC` [picropodophyllin], the log is -0.19.
Turning to `CCCC(C)C1(CC)C(=O)NC(=S)NC1=O` (configuration not stated) [thiopental sodium], the log was determined as 0.132.
On to `CC(C)=CC1C(C(=O)OCc2cccc(Oc3ccccc3)c2)C1(C)C` (configuration not stated) [phenothrin], for which the log was -0.0194.
With `CC1(C)C(=O)C=C[C@]2(C)[C@H]3CC[C@@]4(C)[C@H](c5ccoc5)OC(=O)[C@H]5O[C@]54[C@]3(C)[C@H](O)C[C@@H]12` [deacetylgedunin] the figure was -0.107; with `C[CH2][Hg][S]c1ccccc1C(=O)[O-].[Na+]` [thimerosal], -1.99; with `NC(=O)C[S@@+]([O-])C(c1ccccc1)c1ccccc1` [armodafinil], -0.12.
With `CC(C)=CCC[C@]1(C)C=Cc2c(O)c3c(c(CC=C(C)C)c2O1)O[C@]12C(=C[C@@H]4C[C@H]1C(C)(C)O[C@@]2(C/C=C(/C)C(=O)O)C4=O)C3=O` [gambogic acid] the figure was -1.27; with `NCCc1cc(O)c(O)cc1O` [oxidopamine hydrochloride], 0.0787.
`N#Cc1nn(-c2c(Cl)cc(C(F)(F)F)cc2Cl)c(N)c1[S+]([O-])C(F)(F)F` (configuration not stated) [fipronil]: the log was 0.133.
As for `O=C1C[C@@H]2OCC=C3CN4CC[C@]56c7ccccc7N1[C@H]5[C@H]2[C@H]3C[C@H]46` [strychnine], the log amounted to 0.193.
As to `CC[C@@]1(O)C(=O)OCc2c1cc1n(c2=O)Cc2cc3ccccc3nc2-1` [camptothecin], the log is -0.782.
With `CC(CCc1ccccc1)NC(C)C(O)c1ccc(O)cc1` (configuration not stated) [nylidrin hydrochloride], the log was -0.0134.
Consider `COc1cccc(C2(O)CCCCC2CN(C)C)c1` (configuration not stated) [tramadol hydrochloride], for which the log came out at 0.129.
In the case of `CC(=O)OC1CN2CCC1CC2` (configuration not stated) [aceclidine], the log is -0.0325.
The same measure for `C[N+](C)(C)CCCCCCCCCC[N+](C)(C)C` [decamethonium bromide]: -0.207; for `c1ccc2nc(N3CCNCC3)ccc2c1` [quipazine maleate]: 0.138; for `Cc1cc(OC(=O)N2CCCCC2)c(C(C)C)cc1[N+](C)(C)C`: 0.0556.
As for `C=C(C)c1cc2cc(C(C)=O)c(O)cc2o1` [euparin], the log was 0.0192.
As for `CN1C[C@H](C(=O)N[C@]2(C)O[C@@]3(O)[C@@H]4CCCN4C(=O)[C@H](Cc4ccccc4)N3C2=O)C[C@@H]2c3cccc4[nH]cc(c34)C[C@H]21` [dihydroergotamine mesylate], the log was -0.141.
With `C[N+]1(C)[C@@H]2CC[C@H]1C[C@@H](OC(=O)C(CO)c1ccccc1)C2` (some centres not stated) [methylatropine nitrate] the figure was -0.279; with `Oc1cccc2cccnc12` [oxyquinoline sulfate], 0.0663; with `CC(C)(O)C(Cl)(Cl)Cl` [chlorobutanol], 0.117.
With `CC1=C(O)C(=O)C=C2C1=CC=C1[C@@]2(C)CC[C@@]2(C)[C@@H]3C[C@](C)(C(=O)O)CC[C@]3(C)CC[C@]12C` [celastrol] the figure was -2.15.
Consider `CC(=O)Oc1ccc(/C=C/c2cc(OC(C)=O)cc(OC(C)=O)c2)cc1` [triacetylresveratrol], for which the log is -0.0675.
`N#C/C(=C\c1ccc(O)cc1)C(=O)O` [alpha-cyano-4-hydroxycinnamic acid]: the log came to 0.0319.
Regarding `CCCN1C[C@H](CSC)C[C@@H]2c3cccc4[nH]cc(c34)C[C@H]21` [pergolide mesylate], the log was -0.0596.
`N.N.[Cl][Pt][Cl]` [cisplatin]: the log was found to be 0.0757.
For the compound `CCCCCCCCCc1ccc(O)cc1` [4-nonylphenol], the log is 0.0818.
With `COc1ccc2[nH]cc(CCN)c2c1` [mexamine] the figure was -0.0885; with `CNc1ccc(C(=O)CC(O)CCC(C)C2OC(=O)CC(O)CC(=O)CC(O)CC(O)CC(O)CC(O)CC3(O)CC(O)C(C(=O)OC)C(CC(O[C@@H]4O[C@H](C)[C@@H](O)[C@H](N)[C@@H]4O)/C=C/C=C/C=C/C=C/C=C/C=C/C=C/C2C)O3)cc1.COC(=O)C1C(O)CC2(O)CC(O)CC(O)CC(O)CC(O)CC(=O)CC(O)CC(=O)OC(C(C)CCC(O)CC(=O)c3ccc(N)cc3)C(C)/C=C/C=C/C=C/C=C/C=C/C=C/C=C/C(O[C@@H]3O[C@H](C)[C@@H](O)[C@H](N)[C@@H]3O)CC1O2` (some centres not stated) [mepartricin], -0.522.
As to `Cc1ncc(CNC(=O)N(CCCl)N=O)c(N)n1` [nimustine], the log was determined as 0.0166.
For the compound `COC(=O)[C@]1(C)CC[C@]2(C)CC[C@]3(C)C4=CC=C5C(=CC(=O)C(O)=C5C)[C@]4(C)CC[C@@]3(C)[C@@H]2C1` [pristimerin], the log was -1.
The same measure for `CN1CCCCC1c1ccc(-c2cccnc2)nc1` (configuration not stated) [anabasamine hydrochloride]: -0.0383; for `Cc1cc(O)ccc1Cl` [chlorocresol]: 0.054.
As to `C=C(C)[C@H]1CN[C@H](C(=O)O)[C@H]1CC(=O)O` [kainic acid], the log was 0.00301.
For the compound `CC(=O)O[C@H]1C[C@@H](OC(C)=O)C(C)(C)C2C[C@@H](OC(C)=O)[C@]3(C)C(CC[C@@]4(C)[C@H](c5ccoc5)C(=O)[C@H]5O[C@]543)[C@]21C` (some centres not stated) [khayanthone], the log is 0.131.
Turning to `C[C@@H]1CC[C@@]2(OC1)O[C@H]1[C@@H](O)[C@H]3[C@@H]4CC[C@H]5C[C@@H](O[C@@H]6O[C@H](CO)[C@H](O[C@@H]7O[C@H](CO)[C@@H](O)[C@H](O[C@@H]8OC[C@@H](O)[C@H](O)[C@H]8O)[C@H]7O[C@@H]7O[C@H](CO)[C@H](O)[C@H](O[C@@H]8O[C@H](CO)[C@@H](O)[C@H](O)[C@H]8O)[C@H]7O)[C@H](O)[C@H]6O)[C@H](O)C[C@]5(C)[C@H]4CC[C@]3(C)[C@H]1[C@@H]2C` [digitonin], the log is -0.121.
Take `Nc1ncn[nH]1` [3-amino-1,2,4-triazole]: the log turned out to be 0.0488.
`COc1ccc(CN2CCNCC2)c(OC)c1OC` [trimetazidine dihydrochloride]: the log is -0.361.
For `CC(C)=CCCC1(C)C=Cc2c(O)c3c(c(CC=C(C)C)c2O1)OC12C(CC4CC1C(C)(C)OC2(C/C=C(/C)C(=O)O)C4O)C3=O` (configuration not stated) [tetrahydrogambogic acid], the log was -0.0219.
As to `CC[C@H]1CN2CC[C@H]1C[C@@H]2[C@@H](O)c1ccnc2ccc(OC)cc12` [hydroquinidine], the log is 0.0205.
Regarding `C=C[C@H]1CN2CC[C@H]1C[C@H]2[C@H](OC(=O)OCC)c1ccnc2ccc(OC)cc12` [quinine ethyl carbonate], the log is -0.256.
For `CC(C)[C@@H]1NC(=O)[C@H](C)OC(=O)[C@@H](C(C)C)NC(=O)[C@@H](C(C)C)OC(=O)[C@H](C(C)C)NC(=O)[C@H](C)OC(=O)[C@@H](C(C)C)NC(=O)[C@@H](C(C)C)OC(=O)[C@H](C(C)C)NC(=O)[C@H](C)OC(=O)[C@@H](C(C)C)NC(=O)[C@@H](C(C)C)OC1=O` [valinomycin], the log is -1.34.
As for `CC(=O)Oc1c2c(c(CC=C(C)C)c3c1C(=O)C1=C[C@@H]4CC5C(C)(C)OC(C/C=C(\C)C(=O)O)(C4=O)[C@@]15O3)OC(C)(CCC=C(C)C)C=C2` (some centres not stated) [acetyl isogambogic acid], the log is -1.48.
As for `O=[N+]([O-])O[C@@H]1CO[C@H]2[C@@H]1OC[C@@H]2O` [isosorbide mononitrate], the log was -1.64.
The same measure for `CC1=CC(=O)c2c(O)cccc2C1=O` [plumbagin]: -1.69.
Regarding `NC(=O)c1ccc(N)nc1` [6-aminonicotinamide], the log was 0.0146.
Regarding `N[C@@H](Cc1ccc(N(CCCl)CCCl)cc1)C(=O)O` [melphalan], the log is -0.161.
Regarding `CC(C)N(CCC(C(N)=O)(c1ccccc1)c1ccccn1)C(C)C` (configuration not stated) [disopyramide phosphate], the log is -0.169.
Regarding `N=C(N)NN` [pimagedine hydrochloride], the log is -0.231.
The same measure for `C[C@H](N)[C@H](O)c1ccc(O)c(O)c1` [levonordefrin]: 0.186; for `CN1[C@@H]2CC[C@H]1C[C@@H](OC(=O)[C@H](CO)c1ccccc1)C2` [hyoscyamine]: -0.0206; for `Nc1nc(N)nc(NC2CC2)n1` [cyromazine]: 0.0595.
As to `Cc1ccc(-c2nc3ccc(C)cn3c2CC(=O)N(C)C)cc1` [zolpidem], the log was found to be 0.154.
Turning to `C[C@H]1O[C@H](O[C@H]2[C@H](O)[C@@H](O)[C@@H](O)[C@H](O)[C@@H]2O)[C@@H](N)C[C@@H]1NC(=N)C(=O)O` [kasugamycin hydrochloride], the log worked out at 0.0905.
With `COc1ccc2c(c1)[C@]13CCCC[C@@H]1[C@H](C2)N(C)CC3` [dextromethorphan hydrobromide] the figure was 0.054; with `CC1=NCCc2c1[nH]c1cc(O)ccc21` [harmalol hydrochloride], 0.0787.
